Drawing on paper doi:10.1101/2022.12.13.520306, this text covers binding for four molecules.

Sequences of proteins named here, by UniProt entry; tags and fusion partners are left off.
UniProt Q5H9F3: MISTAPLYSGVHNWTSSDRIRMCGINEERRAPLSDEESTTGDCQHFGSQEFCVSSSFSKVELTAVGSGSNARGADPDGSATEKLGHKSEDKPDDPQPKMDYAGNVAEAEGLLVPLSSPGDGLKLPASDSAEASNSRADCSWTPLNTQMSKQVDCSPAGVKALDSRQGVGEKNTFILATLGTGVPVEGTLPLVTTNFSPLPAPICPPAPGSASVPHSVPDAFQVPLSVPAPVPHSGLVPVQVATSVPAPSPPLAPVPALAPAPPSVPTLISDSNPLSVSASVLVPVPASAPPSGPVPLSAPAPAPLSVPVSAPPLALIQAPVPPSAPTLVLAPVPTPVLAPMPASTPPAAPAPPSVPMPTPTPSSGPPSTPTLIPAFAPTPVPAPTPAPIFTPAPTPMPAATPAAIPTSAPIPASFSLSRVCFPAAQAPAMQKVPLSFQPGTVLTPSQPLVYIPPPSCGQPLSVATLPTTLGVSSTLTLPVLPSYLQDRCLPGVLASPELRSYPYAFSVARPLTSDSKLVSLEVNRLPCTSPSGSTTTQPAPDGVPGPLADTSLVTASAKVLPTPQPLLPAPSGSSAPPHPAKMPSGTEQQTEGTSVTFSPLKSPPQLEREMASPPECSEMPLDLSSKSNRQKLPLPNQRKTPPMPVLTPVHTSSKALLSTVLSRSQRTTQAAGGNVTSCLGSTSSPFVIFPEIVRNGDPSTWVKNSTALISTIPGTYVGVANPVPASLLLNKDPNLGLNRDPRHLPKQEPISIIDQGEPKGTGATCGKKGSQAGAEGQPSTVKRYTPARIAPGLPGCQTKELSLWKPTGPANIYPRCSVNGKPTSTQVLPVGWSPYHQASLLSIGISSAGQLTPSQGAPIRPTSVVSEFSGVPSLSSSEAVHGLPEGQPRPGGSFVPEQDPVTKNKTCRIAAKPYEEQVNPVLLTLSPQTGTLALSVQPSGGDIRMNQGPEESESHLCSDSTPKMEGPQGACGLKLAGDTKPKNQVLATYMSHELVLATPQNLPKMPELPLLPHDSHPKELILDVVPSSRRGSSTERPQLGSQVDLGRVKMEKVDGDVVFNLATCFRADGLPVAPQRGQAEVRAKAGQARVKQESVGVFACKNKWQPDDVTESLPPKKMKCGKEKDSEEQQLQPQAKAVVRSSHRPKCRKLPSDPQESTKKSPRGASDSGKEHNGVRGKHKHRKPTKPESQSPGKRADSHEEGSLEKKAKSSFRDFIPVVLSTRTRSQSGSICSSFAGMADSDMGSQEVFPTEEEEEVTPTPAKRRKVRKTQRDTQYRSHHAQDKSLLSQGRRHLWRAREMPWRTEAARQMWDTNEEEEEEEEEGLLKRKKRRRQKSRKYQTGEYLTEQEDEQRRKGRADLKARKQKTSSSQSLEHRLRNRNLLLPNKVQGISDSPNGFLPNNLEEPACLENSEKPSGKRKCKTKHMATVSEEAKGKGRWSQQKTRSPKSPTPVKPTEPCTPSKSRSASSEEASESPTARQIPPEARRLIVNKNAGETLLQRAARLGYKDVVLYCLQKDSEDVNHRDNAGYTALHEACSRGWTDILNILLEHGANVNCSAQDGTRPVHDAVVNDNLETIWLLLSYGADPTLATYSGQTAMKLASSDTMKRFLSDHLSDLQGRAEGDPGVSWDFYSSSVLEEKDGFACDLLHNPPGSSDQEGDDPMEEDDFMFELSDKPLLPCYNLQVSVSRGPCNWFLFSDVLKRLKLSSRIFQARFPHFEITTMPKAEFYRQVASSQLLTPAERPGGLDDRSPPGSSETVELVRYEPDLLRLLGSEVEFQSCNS
UniProt Q9UPN9: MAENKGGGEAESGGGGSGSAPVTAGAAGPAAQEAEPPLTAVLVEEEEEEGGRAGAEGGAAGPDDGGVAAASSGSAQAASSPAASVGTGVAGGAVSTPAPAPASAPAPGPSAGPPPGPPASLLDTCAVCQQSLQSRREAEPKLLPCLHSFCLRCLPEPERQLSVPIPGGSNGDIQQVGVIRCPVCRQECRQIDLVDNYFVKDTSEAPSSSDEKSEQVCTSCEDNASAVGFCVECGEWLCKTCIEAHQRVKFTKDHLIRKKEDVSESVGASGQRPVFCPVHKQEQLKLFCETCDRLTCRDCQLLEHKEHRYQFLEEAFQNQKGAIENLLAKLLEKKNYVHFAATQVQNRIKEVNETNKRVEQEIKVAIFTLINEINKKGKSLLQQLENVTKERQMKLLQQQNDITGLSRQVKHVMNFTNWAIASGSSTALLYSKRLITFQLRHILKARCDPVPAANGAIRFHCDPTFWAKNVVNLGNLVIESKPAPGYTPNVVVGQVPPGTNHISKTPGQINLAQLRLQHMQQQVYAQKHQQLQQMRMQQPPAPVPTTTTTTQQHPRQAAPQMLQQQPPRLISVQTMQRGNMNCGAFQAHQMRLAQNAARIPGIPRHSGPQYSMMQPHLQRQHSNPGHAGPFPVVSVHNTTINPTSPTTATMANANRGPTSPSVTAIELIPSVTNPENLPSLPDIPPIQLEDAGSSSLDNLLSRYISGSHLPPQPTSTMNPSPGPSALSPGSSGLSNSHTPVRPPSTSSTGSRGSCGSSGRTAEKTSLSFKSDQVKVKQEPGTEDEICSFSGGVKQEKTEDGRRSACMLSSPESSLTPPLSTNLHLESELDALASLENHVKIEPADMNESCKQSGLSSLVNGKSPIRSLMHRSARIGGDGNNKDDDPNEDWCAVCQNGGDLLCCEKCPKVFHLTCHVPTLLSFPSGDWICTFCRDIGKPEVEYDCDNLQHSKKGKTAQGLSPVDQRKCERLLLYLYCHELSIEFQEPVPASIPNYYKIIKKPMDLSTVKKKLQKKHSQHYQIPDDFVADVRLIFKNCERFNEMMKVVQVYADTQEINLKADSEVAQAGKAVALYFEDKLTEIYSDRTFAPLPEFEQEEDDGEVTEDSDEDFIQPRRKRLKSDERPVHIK

Experiment [1] concerns the target T1, TurboID-FOXI1 (human) (UniProt Q12951).
T1 sequence: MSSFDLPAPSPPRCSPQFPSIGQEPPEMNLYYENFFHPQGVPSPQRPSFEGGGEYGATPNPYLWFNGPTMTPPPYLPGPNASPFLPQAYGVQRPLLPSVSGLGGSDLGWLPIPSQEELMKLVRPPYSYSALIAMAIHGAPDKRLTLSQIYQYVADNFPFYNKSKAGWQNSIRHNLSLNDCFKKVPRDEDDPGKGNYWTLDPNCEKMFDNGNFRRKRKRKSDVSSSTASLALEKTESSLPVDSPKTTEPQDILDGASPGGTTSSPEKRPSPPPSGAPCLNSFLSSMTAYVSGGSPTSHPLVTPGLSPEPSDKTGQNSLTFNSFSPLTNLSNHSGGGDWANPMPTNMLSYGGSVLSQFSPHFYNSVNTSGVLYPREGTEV
Kind of experiment: proximity labelling.

The target in experiment [2] is T2, TurboID-FOXD1 (human) (UniProt Q16676).
T2 sequence: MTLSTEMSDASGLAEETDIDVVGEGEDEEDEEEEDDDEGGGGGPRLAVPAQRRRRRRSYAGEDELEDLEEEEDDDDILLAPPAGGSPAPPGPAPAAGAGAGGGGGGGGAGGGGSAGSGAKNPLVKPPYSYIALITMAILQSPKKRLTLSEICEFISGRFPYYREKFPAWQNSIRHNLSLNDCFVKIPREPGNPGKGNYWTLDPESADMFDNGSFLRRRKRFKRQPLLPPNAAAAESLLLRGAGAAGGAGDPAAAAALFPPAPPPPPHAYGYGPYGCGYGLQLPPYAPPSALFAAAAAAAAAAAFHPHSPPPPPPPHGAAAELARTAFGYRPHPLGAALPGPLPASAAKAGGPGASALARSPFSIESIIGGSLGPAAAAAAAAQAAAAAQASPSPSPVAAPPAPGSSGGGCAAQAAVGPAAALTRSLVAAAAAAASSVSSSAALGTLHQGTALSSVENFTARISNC
Kind of experiment: proximity labelling.

These are yes or no findings as the source states them, for the method shown. In cells and extracts the contact can be indirect. Here binding means that the protein was enriched with, or labelled near, the bait; the list need not be complete.

On to BCORL1 (from UniProt Q5H9F3 1-1785), for which the binding result in experiment [1] was “binds”.
Regarding TRIM33 (from UniProt Q9UPN9 1-1127), in experiment [2], the binding entry is “binds”.

B1: JUNB (protein, UniProt P17275 1-347)
chain: MCTKMEQPFYHDDSYTATGYGRAPGGLSLHDYKLLKPSLAVNLADPYRSLKAPGARGPGPEGGGGGSYFSGQGSDTGASLKLASSELERLIVPNSNGVITTTPTPPGQYFYPRGGGSGGGAGGAGGGVTEEQEGFADGFVKALDDLHKMNHVTPPNVSLGATGGPPAGPGGVYAGPEPPPVYTNLSSYSPASASSGGAGAAVGTGSSYPTTTISYLPHAPPFAGGHPAQLGLGRGASTFKEEPQTVPEARSRDATPPVSPINMEDQERIKVERKRLRNRLAATKCRKRKLERIARLEDKVKTLKAENAGLSSTAGLLREQVAQLKQKVMTHVSNGCQLLLGVKGHAF
As for B1, the binding result in experiment [2] was “binds”.

B2: PIAS4 (protein, UniProt Q8N2W9 1-510)
chain: MAAELVEAKNMVMSFRVSDLQMLLGFVGRSKSGLKHELVTRALQLVQFDCSPELFKKIKELYETRYAKKNSEPAPQPHRPLDPLTMHSTYDRAGAVPRTPLAGPNIDYPVLYGKYLNGLGRLPAKTLKPEVRLVKLPFFNMLDELLKPTELVPQNNEKLQESPCIFALTPRQVELIRNSRELQPGVKAVQVVLRICYSDTSCPQEDQYPPNIAVKVNHSYCSVPGYYPSNKPGVEPKRPCRPINLTHLMYLSSATNRITVTWGNYGKSYSVALYLVRQLTSSELLQRLKTIGVKHPELCKALVKEKLRLDPDSEIATTGVRVSLICPLVKMRLSVPCRAETCAHLQCFDAVFYLQMNEKKPTWMCPVCDKPAPYDQLIIDGLLSKILSECEDADEIEYLVDGSWCPIRAEKERSCSPQGAILVLGPSDANGLLPAPSVNGSGALGSTGGGGPVGSMENGKPGADVVDLTLDSSSSSEDEEEEEEEEEDEDEEGPRPKRRCPFQKGLVPAC
For the molecule B2, in experiment [2], the binding entry was “binds”.
